Results: patent US10597369B2, “Monosulfonic phenyltetrazole compounds with applications” (HANGZHOU JENNIFER BIOTECH CO., LTD., priority 2015, dated 2020)

Assay: Assay interference of tetrazolium-formazan-NAD(P)H system
Conditions: absorbance at 450 nm (reference 620 nm); for assay interference by antioxidant BME: BME dose response in the absence of NADH; for assay interference by Tween 20: up to 0.2% Tween 20; for assay interference by Tween 20 / assay interference by SDS: absence or presence of 100 μM NADH; for assay interference by SDS: up to 1% SDS

## COc1cc([N+](=O)[O-])ccc1-[n+]1nc(-c2ccc(S(=O)(=O)[O-])cc2S(=O)(=O)[O-])nn1-c1ccc([N+](=O)[O-])cc1.[Na+] [WST-8, 2-(3-(2-methoxy-4-nitrophenyl)-2-(4-nitrophenyl)-2H-tetrazolium)benzene disulfonate sodium salt, reference compound]
  assay interference by antioxidant BME: strong dose-dependent false positive signals
  assay interference by Tween 20: no interference
  assay interference by SDS: no interference

## COc1cc([N+](=O)[O-])ccc1-[n+]1nc(-c2ccccc2S(=O)(=O)O)nn1-c1ccc([N+](=O)[O-])cc1 [EZMTT, 2-(4-nitrophenyl)-3-(2-methoxy-4-nitrophenyl)-5 (2-sulfonic phenyl)-2H-tetrazolium monosodium salt]
  assay interference by antioxidant BME: essentially no signal changes
  assay interference by Tween 20: no interference
  assay interference by SDS: no interference

Structures can show the parent of a compound that is named as a salt.
